# From the supplement of paper PMC12819154, “High-throughput peptide-centric local stability assay extends protein–ligand identification to membrane proteins, tissues and bacteria” (Nature Structural & Molecular Biology, 2025)
# Chains of the proteins cited; added tags and fusions are not shown. Lines headed by an entry give the natural chain unless they say otherwise; changes in a name come on top.
# UniProt P67870, whole entry: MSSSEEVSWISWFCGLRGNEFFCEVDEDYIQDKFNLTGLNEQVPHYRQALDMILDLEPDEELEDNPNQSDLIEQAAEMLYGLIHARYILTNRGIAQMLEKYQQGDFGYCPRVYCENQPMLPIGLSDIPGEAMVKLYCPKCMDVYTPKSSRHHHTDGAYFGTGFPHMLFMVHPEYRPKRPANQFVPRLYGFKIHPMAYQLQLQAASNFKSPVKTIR
# UniProt P55201: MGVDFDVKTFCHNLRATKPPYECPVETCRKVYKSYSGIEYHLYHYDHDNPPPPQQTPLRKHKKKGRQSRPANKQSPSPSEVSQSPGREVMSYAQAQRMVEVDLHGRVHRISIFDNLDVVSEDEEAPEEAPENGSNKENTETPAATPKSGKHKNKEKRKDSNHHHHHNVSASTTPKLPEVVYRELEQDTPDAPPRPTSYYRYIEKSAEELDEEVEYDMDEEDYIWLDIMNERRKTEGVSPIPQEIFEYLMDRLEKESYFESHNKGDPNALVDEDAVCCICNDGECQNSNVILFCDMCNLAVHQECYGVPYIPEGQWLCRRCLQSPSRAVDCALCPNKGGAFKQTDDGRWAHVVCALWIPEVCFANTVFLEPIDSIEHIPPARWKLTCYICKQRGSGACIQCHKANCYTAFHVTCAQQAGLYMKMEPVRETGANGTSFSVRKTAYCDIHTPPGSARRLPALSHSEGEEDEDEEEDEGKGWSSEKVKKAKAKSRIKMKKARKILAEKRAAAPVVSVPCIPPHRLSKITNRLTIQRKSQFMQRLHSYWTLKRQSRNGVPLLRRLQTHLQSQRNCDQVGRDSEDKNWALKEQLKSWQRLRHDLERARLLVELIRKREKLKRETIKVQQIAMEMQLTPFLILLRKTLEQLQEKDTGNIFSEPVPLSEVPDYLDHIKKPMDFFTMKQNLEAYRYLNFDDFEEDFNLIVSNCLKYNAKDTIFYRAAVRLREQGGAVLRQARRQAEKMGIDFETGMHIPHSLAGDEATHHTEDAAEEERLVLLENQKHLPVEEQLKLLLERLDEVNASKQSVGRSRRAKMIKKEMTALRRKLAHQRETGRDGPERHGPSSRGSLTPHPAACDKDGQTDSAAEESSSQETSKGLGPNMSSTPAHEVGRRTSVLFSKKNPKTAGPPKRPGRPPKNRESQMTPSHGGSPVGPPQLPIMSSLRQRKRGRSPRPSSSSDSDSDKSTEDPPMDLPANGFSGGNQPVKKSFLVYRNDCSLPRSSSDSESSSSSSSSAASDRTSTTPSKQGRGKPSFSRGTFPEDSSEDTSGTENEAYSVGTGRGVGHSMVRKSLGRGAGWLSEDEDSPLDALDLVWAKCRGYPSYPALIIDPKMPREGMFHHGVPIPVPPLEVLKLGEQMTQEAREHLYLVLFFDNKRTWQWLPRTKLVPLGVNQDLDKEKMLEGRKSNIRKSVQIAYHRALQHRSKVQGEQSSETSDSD
# UniProt P55197: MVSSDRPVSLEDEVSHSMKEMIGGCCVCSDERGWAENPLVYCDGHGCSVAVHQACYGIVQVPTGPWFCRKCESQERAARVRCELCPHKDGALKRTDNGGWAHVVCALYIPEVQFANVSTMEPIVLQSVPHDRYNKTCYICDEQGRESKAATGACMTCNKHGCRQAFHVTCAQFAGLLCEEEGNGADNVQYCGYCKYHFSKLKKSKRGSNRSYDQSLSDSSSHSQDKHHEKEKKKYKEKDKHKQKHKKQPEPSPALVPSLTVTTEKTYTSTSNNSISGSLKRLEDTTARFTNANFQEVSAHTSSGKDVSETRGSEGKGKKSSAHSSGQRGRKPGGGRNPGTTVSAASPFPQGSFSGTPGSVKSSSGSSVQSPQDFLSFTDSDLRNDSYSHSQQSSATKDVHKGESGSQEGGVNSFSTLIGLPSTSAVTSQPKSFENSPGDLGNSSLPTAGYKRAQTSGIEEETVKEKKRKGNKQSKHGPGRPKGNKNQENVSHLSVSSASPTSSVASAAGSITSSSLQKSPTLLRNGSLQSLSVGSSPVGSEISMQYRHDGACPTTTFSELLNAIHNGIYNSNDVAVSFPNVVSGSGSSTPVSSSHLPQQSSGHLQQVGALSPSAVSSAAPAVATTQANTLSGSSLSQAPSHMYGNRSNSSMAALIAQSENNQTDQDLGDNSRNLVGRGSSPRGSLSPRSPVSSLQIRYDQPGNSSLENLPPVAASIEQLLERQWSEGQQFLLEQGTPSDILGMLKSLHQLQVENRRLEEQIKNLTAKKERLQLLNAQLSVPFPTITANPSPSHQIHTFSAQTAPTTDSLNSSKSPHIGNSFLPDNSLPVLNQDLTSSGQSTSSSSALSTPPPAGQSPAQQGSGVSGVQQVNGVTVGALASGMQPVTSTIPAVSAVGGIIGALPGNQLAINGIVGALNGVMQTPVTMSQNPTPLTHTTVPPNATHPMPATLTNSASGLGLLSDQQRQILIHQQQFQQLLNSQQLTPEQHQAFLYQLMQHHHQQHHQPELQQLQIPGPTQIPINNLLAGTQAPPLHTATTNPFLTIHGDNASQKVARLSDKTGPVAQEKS
# UniProt P63279, whole entry: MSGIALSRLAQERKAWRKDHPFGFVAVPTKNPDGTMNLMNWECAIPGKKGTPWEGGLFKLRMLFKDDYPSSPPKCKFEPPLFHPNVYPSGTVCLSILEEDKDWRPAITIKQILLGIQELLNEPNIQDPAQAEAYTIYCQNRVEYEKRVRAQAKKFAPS
# UniProt P83436: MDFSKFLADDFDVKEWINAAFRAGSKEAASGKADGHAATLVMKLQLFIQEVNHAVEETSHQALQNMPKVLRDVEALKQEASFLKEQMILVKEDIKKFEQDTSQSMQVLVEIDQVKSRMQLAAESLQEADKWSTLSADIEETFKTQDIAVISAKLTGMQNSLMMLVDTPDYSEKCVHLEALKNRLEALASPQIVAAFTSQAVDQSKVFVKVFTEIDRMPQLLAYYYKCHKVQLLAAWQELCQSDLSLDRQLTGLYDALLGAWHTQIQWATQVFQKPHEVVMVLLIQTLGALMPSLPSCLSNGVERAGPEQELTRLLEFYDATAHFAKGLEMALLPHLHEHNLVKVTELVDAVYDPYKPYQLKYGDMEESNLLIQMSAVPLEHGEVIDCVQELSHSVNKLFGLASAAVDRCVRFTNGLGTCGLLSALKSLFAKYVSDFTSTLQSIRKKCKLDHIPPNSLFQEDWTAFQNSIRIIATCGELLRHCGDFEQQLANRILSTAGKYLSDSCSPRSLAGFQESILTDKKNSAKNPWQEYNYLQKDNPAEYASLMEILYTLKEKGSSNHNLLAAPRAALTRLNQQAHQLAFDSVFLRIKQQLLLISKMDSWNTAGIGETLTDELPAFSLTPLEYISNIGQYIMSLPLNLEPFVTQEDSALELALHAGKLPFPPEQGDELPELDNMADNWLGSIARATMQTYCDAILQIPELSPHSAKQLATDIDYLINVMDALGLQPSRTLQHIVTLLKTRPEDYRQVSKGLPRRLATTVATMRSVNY
# UniProt P78406: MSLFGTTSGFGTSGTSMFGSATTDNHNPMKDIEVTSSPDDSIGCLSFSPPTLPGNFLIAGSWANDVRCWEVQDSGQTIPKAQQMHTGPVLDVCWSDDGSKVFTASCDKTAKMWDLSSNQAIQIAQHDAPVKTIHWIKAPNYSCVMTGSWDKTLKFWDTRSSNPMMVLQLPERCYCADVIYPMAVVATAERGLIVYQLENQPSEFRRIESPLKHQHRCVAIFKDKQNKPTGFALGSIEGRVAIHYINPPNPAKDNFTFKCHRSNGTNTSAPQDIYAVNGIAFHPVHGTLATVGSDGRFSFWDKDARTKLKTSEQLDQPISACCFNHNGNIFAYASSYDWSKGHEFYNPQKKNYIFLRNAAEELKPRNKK
# UniProt P84090, whole entry, looked up: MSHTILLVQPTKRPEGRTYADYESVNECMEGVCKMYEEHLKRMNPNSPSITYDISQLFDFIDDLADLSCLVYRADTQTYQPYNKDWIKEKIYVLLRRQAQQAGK
# UniProt P62333, whole entry: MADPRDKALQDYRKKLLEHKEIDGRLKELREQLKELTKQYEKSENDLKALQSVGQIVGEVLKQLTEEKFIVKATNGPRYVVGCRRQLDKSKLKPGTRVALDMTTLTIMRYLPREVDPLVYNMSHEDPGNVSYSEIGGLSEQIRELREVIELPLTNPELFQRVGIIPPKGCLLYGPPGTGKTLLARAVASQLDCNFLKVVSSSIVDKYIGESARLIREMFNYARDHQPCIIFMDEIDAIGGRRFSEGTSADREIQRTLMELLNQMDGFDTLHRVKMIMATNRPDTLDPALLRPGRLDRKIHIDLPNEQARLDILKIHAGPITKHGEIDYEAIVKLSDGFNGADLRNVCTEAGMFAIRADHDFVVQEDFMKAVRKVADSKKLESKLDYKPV
# UniProt P78317: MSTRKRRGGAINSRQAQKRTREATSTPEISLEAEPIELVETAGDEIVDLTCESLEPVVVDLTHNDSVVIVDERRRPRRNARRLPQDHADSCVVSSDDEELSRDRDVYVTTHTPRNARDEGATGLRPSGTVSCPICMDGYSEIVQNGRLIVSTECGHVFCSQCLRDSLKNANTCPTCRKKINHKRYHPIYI
# UniProt P56524: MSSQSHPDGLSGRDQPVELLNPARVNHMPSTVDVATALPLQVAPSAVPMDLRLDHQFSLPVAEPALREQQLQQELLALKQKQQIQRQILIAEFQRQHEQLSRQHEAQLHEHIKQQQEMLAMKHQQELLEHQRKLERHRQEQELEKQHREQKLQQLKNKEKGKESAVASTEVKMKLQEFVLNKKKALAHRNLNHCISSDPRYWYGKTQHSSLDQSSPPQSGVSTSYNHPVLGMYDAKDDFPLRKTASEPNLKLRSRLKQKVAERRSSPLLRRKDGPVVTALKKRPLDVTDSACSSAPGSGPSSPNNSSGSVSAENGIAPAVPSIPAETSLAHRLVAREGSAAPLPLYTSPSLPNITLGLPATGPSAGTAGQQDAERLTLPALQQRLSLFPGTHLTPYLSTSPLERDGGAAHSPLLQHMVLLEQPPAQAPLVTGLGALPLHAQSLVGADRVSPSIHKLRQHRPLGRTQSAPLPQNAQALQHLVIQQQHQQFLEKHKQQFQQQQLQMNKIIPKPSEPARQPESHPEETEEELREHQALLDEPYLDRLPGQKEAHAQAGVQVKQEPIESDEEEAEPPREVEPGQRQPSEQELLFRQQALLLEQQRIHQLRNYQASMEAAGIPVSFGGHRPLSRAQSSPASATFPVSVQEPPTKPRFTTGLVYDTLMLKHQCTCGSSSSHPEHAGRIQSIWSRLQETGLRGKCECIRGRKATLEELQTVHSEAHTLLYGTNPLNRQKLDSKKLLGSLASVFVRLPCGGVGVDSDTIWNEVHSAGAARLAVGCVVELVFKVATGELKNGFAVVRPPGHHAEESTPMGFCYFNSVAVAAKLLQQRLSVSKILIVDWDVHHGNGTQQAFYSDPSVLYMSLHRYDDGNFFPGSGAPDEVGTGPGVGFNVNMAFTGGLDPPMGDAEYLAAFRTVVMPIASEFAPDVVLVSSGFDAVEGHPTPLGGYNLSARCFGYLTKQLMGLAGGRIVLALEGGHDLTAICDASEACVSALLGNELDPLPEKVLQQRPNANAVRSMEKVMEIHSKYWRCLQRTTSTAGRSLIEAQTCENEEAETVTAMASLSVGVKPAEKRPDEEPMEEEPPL
# UniProt P55822: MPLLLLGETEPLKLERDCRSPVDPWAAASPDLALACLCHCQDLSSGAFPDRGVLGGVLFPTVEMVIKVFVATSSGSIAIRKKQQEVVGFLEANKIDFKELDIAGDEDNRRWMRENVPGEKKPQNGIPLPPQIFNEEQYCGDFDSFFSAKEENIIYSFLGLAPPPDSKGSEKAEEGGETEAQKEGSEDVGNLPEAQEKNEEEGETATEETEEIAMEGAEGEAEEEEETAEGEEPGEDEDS
# UniProt P62306, whole entry, looked up: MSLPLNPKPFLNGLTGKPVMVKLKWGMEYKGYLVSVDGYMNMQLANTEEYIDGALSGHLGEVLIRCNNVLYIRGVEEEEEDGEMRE
# UniProt P62318, whole entry: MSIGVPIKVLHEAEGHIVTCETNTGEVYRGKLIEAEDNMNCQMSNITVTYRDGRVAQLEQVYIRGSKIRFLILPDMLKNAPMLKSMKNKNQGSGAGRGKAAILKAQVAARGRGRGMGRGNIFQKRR
# UniProt P55209: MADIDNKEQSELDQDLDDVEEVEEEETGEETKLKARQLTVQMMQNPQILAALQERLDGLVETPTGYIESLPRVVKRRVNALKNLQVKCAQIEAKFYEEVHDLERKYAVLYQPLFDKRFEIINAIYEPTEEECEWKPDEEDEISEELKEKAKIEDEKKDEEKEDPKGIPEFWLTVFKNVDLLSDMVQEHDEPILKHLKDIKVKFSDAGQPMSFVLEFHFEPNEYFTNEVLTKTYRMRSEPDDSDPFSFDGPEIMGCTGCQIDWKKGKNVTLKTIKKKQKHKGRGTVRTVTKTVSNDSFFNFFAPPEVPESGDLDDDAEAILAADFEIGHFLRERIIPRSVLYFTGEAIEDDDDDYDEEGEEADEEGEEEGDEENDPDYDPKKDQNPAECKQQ
# UniProt P61244, whole entry: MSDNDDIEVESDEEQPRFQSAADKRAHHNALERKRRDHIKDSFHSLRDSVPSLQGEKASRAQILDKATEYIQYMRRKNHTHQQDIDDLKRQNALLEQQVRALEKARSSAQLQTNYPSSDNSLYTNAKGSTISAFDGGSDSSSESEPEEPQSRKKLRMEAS
# The other results are listed elsewhere or left out. Most entries show no effect beyond the scatter of the controls.
# Compound: CN[C@@H]1C[C@H]2O[C@@](C)([C@@H]1OC)n1c3ccccc3c3c4c(c5c6ccccc6n2c5c31)C(=O)NC4 [staurosporine]
# Experiment: log2 fold change of tryptic peptide abundance, ligand vs vehicle (limited proteolysis) (log2 ratio); higher = more trypsin-susceptible (destabilized)
# Conditions: ligand concentration: 20 uM; sample: K562 cleared lysate; digestion: 4 min, 22 C (HT-PELSA RT4min, Orbitrap Astral)
row,Target,log2 fold change
1,"VAMP2 (peptide sequence: LQQTQAQVDEVVDIMR, peptide start residue: 32) (UniProt P63027)",-0.177
2,"CSNK2B (peptide sequence: IHPMAYQLQLQAASNFK, peptide start residue: 192) (UniProt P67870)",0.00048
3,"UniProt P62910 (peptide sequence: ELEVLLMCNK, peptide start residue: 84)",-0.126
4,"UniProt P55201 (peptide sequence: HLPVEEQLK, peptide start residue: 779)",-0.135
5,"UniProt P84098 (peptide sequence: LIKDGLIIR, peptide start residue: 44)",-0.138
6,"MLLT10 (peptide sequence: FTNANFQEVSAHTSSGKDVSETR, peptide start residue: 289) (UniProt P55197)",-0.397
7,"UniProt P63279 (peptide sequence: GTPWEGGLFK, peptide start residue: 50)",0.153
8,"MRPS11 (peptide sequence: KFEEIPIAHIK, peptide start residue: 79) (UniProt P82912)",-0.0884
9,"COG7 (peptide sequence: FLADDFDVK, peptide start residue: 6) (UniProt P83436)",0.206
10,"RAE1 (peptide sequence: FSFWDKDAR, peptide start residue: 297) (UniProt P78406)",-0.602
11,"UniProt P84090 (peptide sequence: IYVLLRR, peptide start residue: 91)",-0.491
12,"UniProt P62333 (peptide sequence: VGIIPPKGCLLYGPPGTGKTLLAR, peptide start residue: 162)",0.535
13,"UniProt P63151 (peptide sequence: NAAQFLLSTNDKTIK, peptide start residue: 106)",0.585
14,"MRPS35 (peptide sequence: TPGNERPPR, peptide start residue: 41) (UniProt P82673)",-0.413
15,"GSDMD (peptide sequence: STSEGAWPQLPSGLSMMR, peptide start residue: 250) (UniProt P57764)",0.17
16,"SSBP2 (peptide sequence: ETCEHSSEAK, peptide start residue: 80) (UniProt P81877)",-0.242
17,"RNF4 (peptide sequence: DVYVTTHTPR, peptide start residue: 105) (UniProt P78317)",0.353
18,"UniProt P58317 (peptide sequence: AFTVSSSLHNHVK, peptide start residue: 292)",-0.458
19,"HDAC4 (peptide sequence: NLNHCISSDPR, peptide start residue: 190) (UniProt P56524)",0.31
20,"SH3BGR (peptide sequence: AEEGGETEAQK, peptide start residue: 172) (UniProt P55822)",0.577
21,"UniProt P62306 (peptide sequence: GVEEEEEDGEMRE, peptide start residue: 74)",-0.241
22,"UniProt P62318 (peptide sequence: IRFLILPDMLK, peptide start residue: 68)",-0.247
23,"NAP1L1 (peptide sequence: YAVLYQPLFDKR, peptide start residue: 106) (UniProt P55209)",0.222
24,"UniProt P62316 (peptide sequence: EMWTEVPK, peptide start residue: 72)",0.256
25,"GSTO1 (peptide sequence: HEVININLK, peptide start residue: 49) (UniProt P78417)",0.388
26,"MAX (peptide sequence: DHIKDSFHSLR, peptide start residue: 37) (UniProt P61244)",0.242
27,"IGBP1 (peptide sequence: SAVESGQADDER, peptide start residue: 177) (UniProt P78318)",0.775
28,"UniProt P58005 (peptide sequence: HYIAIMAAAR, peptide start residue: 113)",-0.266
29,"UniProt P62081 (peptide sequence: EIEVGGGRK, peptide start residue: 50)",0.146

# Look-ups from above:
# log2 fold change, COG7 (peptide sequence: FLADDFDVK, peptide start residue: 6) (UniProt P83436) reads 0.206
# log2 fold change, GSTO1 (peptide sequence: HEVININLK, peptide start residue: 49) (UniProt P78417) reads 0.388
